Reference: PubChem BioAssay AID1259264 (Sanger Institute, 2017)
Shown is an unselected part of 794 deposited reagents. Of all reagents, 15 (1.9%) were called active. 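Calls rest on knock-down alone at z-score below -3; synergy scores with the three drugs do not decide them.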 Viability is capped at 1. Not all columns of the deposit are shown. No sequences are given here. Not given: the amount of reagent, the time to read-out.

Aim: 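Kinases whose loss cuts CL40 colorectal cancer cell survival, alone or with drugs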 (primary screen)
Cell system: CL40 human colorectal cancer cells
Reagents: siRNA pool against human genes
Conditions: DMSO, or an anchor drug: BYL719 at 1 µM, cetuximab at 5 µg/ml, or trametinib at 10 nM
Read-out: 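Viability as a fraction of non-targeting pool control (replicates averaged), control-based robust z-score, plus averaged synergy for each drug: BYL719 1 µM, cetuximab 5 µg/ml, trametinib 10 nM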
Direction: robust z-score, siRNA alone and viability, siRNA alone: higher = more viable cells
Units: viability, siRNA alone in fraction of control
Rule for the call: 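a gene counts as essential when knock-down without drug gives a robust z-score below -3, meaning fewer cells; synergy scores play no part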
Meaning of the calls: active = essential (lowers viability alone); inactive = not essential

Depletion of MAPKAPK5 gave: robust z-score, siRNA alone 0.465; viability, siRNA alone 0.995; inactive.
Knock-down of PRKAR1A gave: robust z-score, siRNA alone 0.539; viability, siRNA alone 1; inactive.
After knock-down of CDKN2C, the record shows robust z-score, siRNA alone 0.338; viability, siRNA alone 0.986; inactive.
Silencing of DDR2 came out at: robust z-score, siRNA alone -0.254; viability, siRNA alone 0.943; inactive.
Depletion of MSR1 gave: robust z-score, siRNA alone -1.11; viability, siRNA alone 0.882; inactive.
For CDKN2B the deposit lists robust z-score, siRNA alone 0.539; viability, siRNA alone 1; inactive.
After knock-down of EPHA5, the record shows robust z-score, siRNA alone 0.539; viability, siRNA alone 1; inactive.
Against ULK4, the entry reads robust z-score, siRNA alone -0.66; viability, siRNA alone 0.914; inactive.
Depletion of NEK7 gave: robust z-score, siRNA alone 0.539; viability, siRNA alone 1; inactive.
Knock-down of CDKL2 resulted in: robust z-score, siRNA alone 0.539; viability, siRNA alone 1; inactive.
After knock-down of PIK3CG, the record shows robust z-score, siRNA alone -0.566; viability, siRNA alone 0.921; inactive.

A stretch of the results above, for reference:
CDKN2B: robust z-score, siRNA alone = 0.539; viability, siRNA alone = 1; Call = inactive
EPHA5: robust z-score, siRNA alone = 0.539; viability, siRNA alone = 1; Call = inactive
ULK4: robust z-score, siRNA alone = -0.66; viability, siRNA alone = 0.914; Call = inactive
NEK7: robust z-score, siRNA alone = 0.539; viability, siRNA alone = 1; Call = inactive

Additional results:
TNK2 showed robust z-score, siRNA alone 0.539; viability, siRNA alone 1; inactive.
After knock-down of CSNK1E the results were robust z-score, siRNA alone 0.0253; viability, siRNA alone 0.963; inactive.
For PFKFB4, the entry reads robust z-score, siRNA alone 0.539; viability, siRNA alone 1; inactive.
Knock-down of YES1 came out at: robust z-score, siRNA alone 0.539; viability, siRNA alone 1; inactive.
CAMK1D showed robust z-score, siRNA alone 0.539; viability, siRNA alone 1; inactive.
After knock-down of GK, the record shows robust z-score, siRNA alone 0.539; viability, siRNA alone 1; inactive.
After knock-down of FGFR1 the results were robust z-score, siRNA alone 0.539; viability, siRNA alone 1; inactive.
With knock-down of GCK, the record shows robust z-score, siRNA alone 0.539; viability, siRNA alone 1; inactive.
For DYRK4, the entry reads robust z-score, siRNA alone -0.0226; viability, siRNA alone 0.96; inactive.
ROR1 showed robust z-score, siRNA alone 0.539; viability, siRNA alone 1; inactive.
PRKCE scored robust z-score, siRNA alone 0.539; viability, siRNA alone 1; inactive.
For ERBB3, the entry reads robust z-score, siRNA alone 0.387; viability, siRNA alone 0.989; inactive.
ACVR1 gave robust z-score, siRNA alone 0.26; viability, siRNA alone 0.98; inactive.
With knock-down of CKS1B, the screen gave robust z-score, siRNA alone 0.0137; viability, siRNA alone 0.962; inactive.
PNCK gave robust z-score, siRNA alone -1.09; viability, siRNA alone 0.884; inactive.
For LIMK1, the values are robust z-score, siRNA alone 0.539; viability, siRNA alone 1; inactive.
After knock-down of DLG1, the record shows robust z-score, siRNA alone 0.118; viability, siRNA alone 0.97; inactive.
